# Experimental data: PubChem BioAssay AID504795 (Drosophila RNAi Screening Center, 2011)
# Screen: 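Genes required for normal axon extension and glial cell shape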 (primary screen)
# Cell system: primary Drosophila neurons and glia
# Knock-down reagent: long dsRNA against Drosophila genes, 250 ng dsRNA per well
# Duration: one week
# Read-out: 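Descriptive morphology terms assigned by visual inspection of live automated images of GFP-marked cells, taken one week after adding 250 ng dsRNA per well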
# Only reagents picked out of a larger screen are listed. 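Every listed dsRNA shows some phenotype; how reagents were selected for listing is not stated.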 A plus sign joins genes that one reagent is predicted to hit. Reagent sequences are not shown.
target,amplicon,"phenotype seen, replicate 1"
CG14109,DRSC10112,reduced axon outgrowth
Polr2A,DRSC20280,reduced axon outgrowth
RpL22-like,DRSC04582,axon bundles split apart
CG14275,DRSC02379,sheet-like cell extensions
ClC-a,DRSC14948,too many neurite branches
CG14907 + Mettl4,DRSC15027,sheet-like cell extensions
Elp6,DRSC16571,beaded; swollen axons
CG42323,DRSC19629,too many neurite branches
Pex10,DRSC08599,reduced axon outgrowth
mat,DRSC08376,axon bundles split apart
kl-3 (retired record),DRSC20891,sheet-like cell extensions
CG7202,DRSC11818,sheet-like cell extensions
CG42518 + MED9,DRSC06917,axon bundles split apart
CG18659,DRSC06784,axon bundles split apart
CG31848,DRSC01309,axon bundles split apart
CG10300,DRSC14225,too many neurite branches
Rpp30,DRSC00320,axon bundles split apart
ND-B14.7,DRSC04544,reduced axon outgrowth
eIF3g1,DRSC18427,cell fragments present
EMC4,DRSC11638,abnormal cell clusters
CG14957,DRSC08416,reduced axon outgrowth
timeout,DRSC17079,sheet-like cell extensions
FoxP,DRSC21961,too many neurite branches
Dtwd2 + Obp84a,DRSC12603,axon bundles split apart
Srg2 + CG42826,DRSC10682,cell fragments present
RpS9,DRSC11273,reduced axon outgrowth
orion,DRSC18213,too many neurite branches
CG15308,DRSC17995,axon bundles split apart
CG9581,DRSC20695,sheet-like cell extensions
ND-ACP,DRSC08724,axon bundles split apart
CG18507,DRSC01914,too many neurite branches
Polr3F,DRSC15785,too many neurite branches
CG42288,DRSC06381,abnormal cell clusters
CG8539,DRSC21798,too many neurite branches
CG7208,DRSC16212,axon bundles split apart
PIG-F,DRSC11069,too many neurite branches
Ciz1,DRSC09675,abnormal cell clusters
RpS26,DRSC03420,too many neurite branches
DnaJ-H,DRSC03273,reduced axon outgrowth
Grx3,DRSC02966,axon bundles split apart
CG15452,DRSC20523,sheet-like cell extensions
CG17819,DRSC15279,abnormal cell clusters
Zw,DRSC20303,cell fragments present
CG3587,DRSC18541,reduced axon outgrowth
CG8407,DRSC07167,abnormal cell clusters
CG42673,DRSC08991,too many neurite branches
CG42673,DRSC10353,too many neurite branches
VhaAC39-1,DRSC18242,abnormal cell clusters
Brf,DRSC14166,axon bundles split apart
Brf,DRSC14167,abnormal cell clusters
dpr12,DRSC04892,axon bundles split apart

6 of these entries, reformatted.
Ciz1 [DRSC09675]: phenotype seen, replicate 1 = abnormal cell clusters
RpS26 [DRSC03420]: phenotype seen, replicate 1 = too many neurite branches
DnaJ-H [DRSC03273]: phenotype seen, replicate 1 = reduced axon outgrowth
Grx3 [DRSC02966]: phenotype seen, replicate 1 = axon bundles split apart
CG15452 [DRSC20523]: phenotype seen, replicate 1 = sheet-like cell extensions
CG17819 [DRSC15279]: phenotype seen, replicate 1 = abnormal cell clusters
